Experimental data published in PubChem BioAssay AID540276 (National Center for Advancing Translational Sciences (NCATS), 2011).
The campaign covered roughly 300,000 compounds. About 5,400 (1.8%) were called active. The shares of active, inactive and inconclusive entries below differ from those in the screen. The call rests on the fitted dose curve; tested in HEK293 cells. Potencies of inconclusive entries are doubtful fits and often do not repeat.

Test: qHTS for inhibitors of binding or entry into cells for Marburg Virus
Conditions: Marburg virus pseudotyped entry inhibition, cell reporter; activity change, negative = inhibition: at 37.8 µM (top of the series) unless noted
On the % scale 0 is the no-effect control and ±100 the full control effect; potency means the concentration at half of the fitted maximal effect.

Row | Structure (SMILES) | Potency | activity change, negative = inhibition
1 | CCOC(=O)c1cc2c(=O)n3ccccc3nc2n(CC2CCCO2)c1=NC(=O)c1ccc(OC)cc1OC (configuration not stated) | inconclusive: 6.31 µM [inhibitor, partial curve, poor fit] | 
2 | Cc1ccc(C(=O)c2oc3ccccc3c2NC(=O)COc2ccccc2Cl)cc1 | inactive | 
3 | O=C(Nc1cc(Oc2ccccc2)cc([N+](=O)[O-])c1)C12CC3CC(C1)CC(n1cnc(Cl)n1)(C3)C2 | inconclusive: 7.3 µM [inhibitor, partial curve, poor fit] | 
4 | COc1cccc(NC(=O)Cn2c(=O)n(CCc3ccccc3)c(=O)c3c4c(sc32)CN(C(C)=O)CC4)c1 | inactive | 
5 | COc1cc(CN2CCCCCC2)cc(Br)c1O | inactive | 
6 | CC#CCN1C(=O)N[C@@H](c2ccccc2)C(C(=O)OC)=C1C | inconclusive: 0.75 µM [inhibitor, single point] | 
7 | CCCc1ccc(C(=O)O/N=C(\N)c2ccccn2)cc1 | active: 11.2 µM | 
8 | CCOc1ccc(/C=N/NC(=O)Cc2csc(Nc3cccc(C(F)(F)F)c3)n2)cc1 | inconclusive: 10 µM [inhibitor, partial curve] | 
9 | CCN(CC)CCCn1c2c(c(SCC(=O)Nc3cccc(C(C)=O)c3)nc1=O)CCC2 | inconclusive: 0.199 µM [activator, full curve, poor fit] | 
10 | CCOC(=O)CN1C(=O)NC(c2cccc(C(F)(F)F)c2)C(C(=O)OC)=C1C (configuration not stated) | inactive | 
11 | Cc1cc(C(=O)CSc2nnnn2-c2ccccc2)c(C)n1-c1ccc2c(c1)OCO2 | inconclusive: 0.1 µM [inhibitor, full curve, poor fit] | 
12 | COC(=O)[C@@H]1C2CCC(C(=O)Nc3ccccc3)(CC2)[C@@H]1C(=O)OC | inactive | 
13 | Cn1c(=O)[nH]c(=O)c2c1nc(Br)n2Cc1ccccc1Cl | inconclusive: 2.24 µM [activator, partial curve] | 
14 | CCCC[C@]12Cc3cc(C#N)ccc3[C@H](O1)c1c(c3ccccc3oc1=O)O2 | inactive | 
15 | COc1ccc(NC(=O)CN(C)C(=O)CCCc2nc3ccccc3s2)cc1 | inconclusive: 12.6 µM [activator, partial curve] | 
16 | COCC(C)n1c(C)cc(C(=O)CSc2cc(C)c3ccccc3n2)c1C (configuration not stated) | inconclusive: 0.891 µM [inhibitor, full curve, poor fit] | 
17 | CCN(CC)S(=O)(=O)c1ccc(-c2cn3cc(Cl)ccc3n2)cc1 | inconclusive: 6.31 µM [inhibitor, partial curve, poor fit] | 
18 | Cc1oc(-c2cccc(Cl)c2)nc1CN1CCCC(C(=O)N2CCN(c3ccc(F)cc3)CC2)C1 (configuration not stated) | inconclusive: 2.82 µM [inhibitor, full curve, poor fit] | 
19 | NC(=O)C1CN(S(=O)(=O)c2ccc(Cl)cc2F)c2ccccc2O1 (configuration not stated) | inconclusive: 6.31 µM [inhibitor, single point] | 
20 | COc1c(Cl)cc(C(=O)N(Cc2ccc(C)o2)C2CCS(=O)(=O)C2)cc1Cl (configuration not stated) | inactive | 
21 | O=C(Nc1ccc2nc3n(c(=O)c2c1)CCCCC3)c1ccccn1 | inactive | 
22 | CC1(C)CC(=O)C2=C(C1)N(c1cccc(O)c1)C1=C(C2)C(=O)CC(C)(C)C1 | inactive | 
23 | Cc1ccc(NC(=O)Cn2ccsc2=N)cc1S(=O)(=O)N(C)C | inactive | 

Row | Structure (SMILES) | Potency | activity change, negative = inhibition
24 | CCC(C)c1ccc(NC(=O)C2CC3CCC2C3)cc1 (configuration not stated) | inconclusive: 3.16 µM [activator, partial curve, poor fit] | 
25 | Cc1nc(NC(=O)CSc2nnc3ccccn23)c(Cl)cc1Cl | inactive | 
26 | COc1cc(NC2c3ccccc3C(=O)N2Cc2ccc3c(c2)OCO3)cc(OC)c1 (configuration not stated) | inactive | 
27 | Cc1ccc2nc(-c3ccc4c(c3)NC(=O)CO4)cn2c1 | inconclusive: 1.26 µM [activator, partial curve, poor fit] | 
28 | COc1ccccc1/C=C/C(=O)Nc1ccc2c(c1)OCCO2 | inconclusive: 13 µM [inhibitor, single point] | 
29 | CCN(CC)CCN(C(=O)c1ccc2c(c1)OCCO2)c1nc2c(Cl)cccc2s1 | inconclusive: 12.6 µM [inhibitor, partial curve] | 
30 | O=C(Nc1ccc(C(=O)NC2CCCCC2)cc1)c1cncc(Br)c1 | inconclusive: 4.47 µM [activator, full curve, poor fit] | 
31 | CC(C)c1ccc(N(C(=O)c2snc(C(N)=O)c2N)C(C(=O)NCC2CCCO2)c2ccc(N(C)C)cc2)cc1 (configuration not stated) | inconclusive: 12.6 µM [inhibitor, partial curve, poor fit] | 
32 | CCOc1ccc(-n2c(CC)nc3c(cnn3-c3ccc(Cl)cc3)c2=O)cc1 | inactive | 
33 | O=C1NC(c2cccs2)Nc2sc3c(c21)CCCC3 (configuration not stated) | inconclusive: 3.98 µM [activator, full curve] | 
34 | CC(C)c1nc2n(n1)C1(CCCCC1)[C@@H]1CCCC[C@@H]1N2 | inactive | 
35 | COc1ccc(C2(c3ccc(O)cc3O)CC(c3ccccc3Cl)NC(=S)N2)cc1 (configuration not stated) | inconclusive: 6.31 µM [inhibitor, partial curve, poor fit] | 
36 | CCCCN(CC)S(=O)(=O)c1ccc(C(=O)Nc2nnc(CSC)o2)cc1 | inconclusive: 22.4 µM [inhibitor, single point] | 
37 | N/C(=N/O)c1nc(N2CCCC2)nc(N2CCCC2)n1 | inconclusive: 3.16 µM [inhibitor, single point] | 
38 | CN1CC2=Cc3ccccc3OC23Oc2ccccc2C=C3C1 | inconclusive: 35.5 µM [inhibitor, single point] | 
39 | CCOCCCNC(=S)NCCNc1nc2c(C)cccc2cc1C#N | inconclusive: 1.16 µM [inhibitor, full curve, poor fit] | 
40 | CCOC(=O)c1c(NC(=O)CSc2cn(CCNC(=O)c3ccccc3OC)c3ccccc23)sc2c1CCC2 | active: 12.6 µM | 
41 | O=C(c1cc(-c2ccc3c(c2)OCO3)on1)N1CCN(c2ccccc2)CC1 | inconclusive: 25.9 µM [inhibitor, single point] | 
42 | Cc1ccc(-n2c(C)cc3c2CCCC3=O)cc1 | inactive | 
43 | CC(C)(C)Sc1ccc(/C=N/O)cc1[N+](=O)[O-] | inconclusive: 10 µM [inhibitor, partial curve, poor fit] | 
44 | COc1ccccc1C(=O)n1nc(-c2ccco2)nc1SC | inconclusive: 12.6 µM [inhibitor, partial curve, poor fit] | 
45 | c1ccc2cc3c(NCCN4CCOCC4)ccnc3cc2c1 | active: 3.66 µM | 
46 | Cc1cccc(NC(=O)c2sc3nc4c(c(-c5cccs5)c3c2N)CN(C)CC4)c1 | inconclusive: 17.8 µM [inhibitor, single point] | 

Molecules from the list above that contain a thiophene ring, fused or not:
Row | Structure (SMILES) | Potency | activity change, negative = inhibition
4 | COc1cccc(NC(=O)Cn2c(=O)n(CCc3ccccc3)c(=O)c3c4c(sc32)CN(C(C)=O)CC4)c1 | inactive | 
33 | O=C1NC(c2cccs2)Nc2sc3c(c21)CCCC3 (configuration not stated) | inconclusive: 3.98 µM [activator, full curve] | 
40 | CCOC(=O)c1c(NC(=O)CSc2cn(CCNC(=O)c3ccccc3OC)c3ccccc23)sc2c1CCC2 | active: 12.6 µM | 
46 | Cc1cccc(NC(=O)c2sc3nc4c(c(-c5cccs5)c3c2N)CN(C)CC4)c1 | inconclusive: 17.8 µM [inhibitor, single point] | 

More structures:

Row | Structure (SMILES) | Potency | activity change, negative = inhibition
47 | CC(C)(C)NC(=O)C(=O)NNC(=O)c1cccc(F)c1 |  | inconclusive: 1.06% [activator] [at 46.1 µM]
48 | Cc1ccc(O)c(C(=O)c2cnc3c(c2)c(C)nn3-c2ccccc2)c1 | inconclusive: 22.4 µM [inhibitor, single point] | 
49 | Cc1cc(S(=O)(=O)N2CCN(c3ccccc3F)CC2)ccc1-n1cnnn1 | inconclusive: 3.98 µM [inhibitor, full curve, poor fit] | 
50 | Cc1ccc(Cn2cnc3ccccc32)cc1C | inactive | 
51 | CC1CCC2(CC1)NC(=O)N(CC(=O)Nc1ccc3c(c1)OCCO3)C2=O (configuration not stated) | inactive | 
52 | Cn1cc(C(=O)c2ccc(Cl)cc2Cl)cc1C(=O)NN | inconclusive: 20 µM [inhibitor, single point] | 
53 | Cc1ccc(N2C(=O)N(CC(=O)N3CCOCC3)C(=O)C2C)cc1 (configuration not stated) | inconclusive: 12.6 µM [activator, partial curve, poor fit] | 
54 | CCn1nnnc1NC(=O)c1ccc2ccccc2c1 | inactive | 
55 | O=C(NC(=S)Nc1ncccn1)c1ccccc1Cl | inconclusive: 35.5 µM [activator, single point] | 
56 | O=C(N[C@@H](Cc1c[nH]c2ccccc12)C(=O)O)c1ccccc1Cl | inactive | 
57 | O=[N+]([O-])c1cc(Cl)c(O)c2ncccc12 | inconclusive: 15.8 µM [inhibitor, single point] | 
58 | Cc1ccc(S(=O)(=O)N2CCN(C(=O)Cn3c(=O)oc4ccccc43)CC2)cc1 | inconclusive: 5.62 µM [activator, full curve, poor fit] | 
59 | NC(=O)c1ccc(N2CCN(c3ccccc3O)CC2)c([N+](=O)[O-])c1 | inconclusive: 6.31 µM [inhibitor, single point] | 
60 | COc1cccc(N2CCN(C(=O)c3[nH]c(C)c(C(C)=O)c3C)CC2)c1 | inconclusive: 0.891 µM [inhibitor, full curve, poor fit] | 
61 | COc1ccc(C(=O)NC(=S)NNC(=O)c2cnccn2)cc1 | inconclusive: 0.178 µM [inhibitor, full curve, poor fit] | 
62 | O=C(Nc1ccc(Cl)c(S(=O)(=O)N2CCOCC2)c1)c1ccccc1-c1ccc(C(F)(F)F)cc1 | inconclusive: 18.4 µM [inhibitor, partial curve, poor fit] | 
63 | O=C(/C=C/c1ccc(Br)o1)Nc1nccs1 | inconclusive: 0.82 µM [activator, full curve, poor fit] | 
64 | CCCCN(CC)c1nc(-c2ccncc2)nc2ccccc12 | inconclusive: 20.6 µM [inhibitor, single point] | 
65 | O=C(CN1CCC(C(=O)c2ccc3c(c2)OCCO3)CC1)Nc1ccccc1C(F)(F)F | inconclusive: 4.47 µM [inhibitor, full curve] | 
66 | COc1ccc(C(=O)Nc2ccccc2C(=O)NC(Cc2ccc(O)cc2)C(=O)NNC(=O)c2ccncc2)cc1 (configuration not stated) | inactive | 
67 | Cn1c(=O)n(C)c2cc(N3CCCCC3)c(NC(=O)Nc3ccc(Br)cc3)cc21 | inconclusive: 2.51 µM [inhibitor, single point] | 
